# Results reported in PubChem BioAssay AID2685 (National Center for Advancing Translational Sciences (NCATS), 2010).
# The other results are listed elsewhere or left out. Shown are side measurements of this screen, not its main read-out; they come without a call. Most of these compounds were active or inconclusive in the main read-out, so they are no random draw. Potencies come from curve fits of mixed quality, noted in brackets.
# Test: qHTS Assay for Lipid Storage Modulators in Drosophila S3 Cells;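 on cell number change: cells counted by Cell Tracker Red CMTPX staining in the red channel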
# Conditions: BODIPY lipid droplet fluorescence, 18-24 h; for cell number change: measured here: cell count max response, cells fed with added oleic acid
# Summary of the method: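 Drosophila S3 cells got compounds at several concentrations plus oleic acid (400 uM solution). Laser-scanning cytometry with 488 nm excitation read lipid droplets at 500-530 nm and cells at 575-640 nm. Percent activity was relative to 20 uM Triacsin C.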
# [1] = measured here: lipid fluorescence (Fed channel) AC50, cells fed with added oleic acid
# [2] = measured here: cell number channel AC50, cells fed with added oleic acid
SMILES,cell number change [%],AC50 [1],AC50 [2]
CCCc1nnc(SCC(=O)Nc2nnc(CC)s2)n1CC1CCCO1 (configuration not stated),6.25,,
CC(/C=N/NC(=O)CN1CCN(Cc2ccc(Cl)cc2)CC1)=C\c1ccco1,14.9,"0.58 µM [falling, full curve, poor fit]",
CCn1c(NCc2cc(OC)c(OC)c(OC)c2)nc2ccccc21,-19,"0.58 µM [rising, single point]",
CCN1CCN(CCCN(Cc2ccco2)C(=S)Nc2cccc(Cl)c2C)CC1,-18.7,"0.82 µM [falling, full curve, poor fit]","0.82 µM [falling, full curve, poor fit]"
CCOc1cc(C(=O)Nc2nnc(CC)s2)ccc1OCC(=O)N1CCOCC1,-0.883,"7.31 µM [rising, partial curve, poor fit]",
CCc1ccc(N2CCN(CCNC(=O)Nc3ccc(OC)cc3)CC2)cc1,-20.1,,
COc1cc(-c2nnc(-c3ccc(N4CCOCC4)cc3)o2)cc(OC)c1OC,-30.7,"8.2 µM [falling, partial curve, poor fit]","2.06 µM [falling, full curve, poor fit]"
Cc1ccc(S(=O)(=O)NC(C)(C)CN2CCC(Cc3ccccc3)CC2)cc1,-34,"32.6 µM [falling, single point]","8.2 µM [falling, partial curve]"
Cc1cc(C)n2c(Nc3ccc4c(c3)OCCO4)c(-c3ccco3)nc2n1,7.98,"0.58 µM [rising, full curve]",
Cc1cccc(NC(=O)CN(C)S(=O)(=O)c2cccc3cccnc23)c1C,10,"29.1 µM [rising, partial curve, poor fit]",
Cc1cccc(-c2nc(=S)c3c(o2)CCCC3)c1,28.4,"6.51 µM [rising, partial curve, poor fit]",
COC(=O)c1ccc(Cl)c(NC(=O)c2ccc(-c3ccccc3)cc2)c1,-37.4,"18.4 µM [falling, partial curve, poor fit]","25.9 µM [falling, single point]"
COc1ccc(OC)c(S(=O)(=O)Nc2cccc(-c3ccc(N4CCCCCC4)nn3)c2)c1,-20,"6.51 µM [falling, single point]",
Cc1ccc(CNC(=O)c2cn(C)c3ccc(S(=O)(=O)N4CCOCC4)cc3c2=O)cc1,-14.7,"6.51 µM [falling, single point]",
CCCCCCN(C(=O)CCl)c1ccccc1,-16.5,"4.11 µM [rising, partial curve]",
